No constants are given. Whether binding was seen depends on the method and setting.

The assay has as its target T1, MatPΔ18C (printed MatPA18C; 1-132) (E. coli) (UniProt P0A8N0).
T1 sequence: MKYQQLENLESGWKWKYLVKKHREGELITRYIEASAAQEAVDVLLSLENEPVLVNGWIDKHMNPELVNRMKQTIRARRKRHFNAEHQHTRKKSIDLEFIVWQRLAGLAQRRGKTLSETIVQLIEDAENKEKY
Put plainly: native MS.

B1: ParC, full length (enzyme, UniProt P0AFI2 1-752)
chain: MSDMAERLALHEFTENAYLNYSMYVIMDRALPFIGDGLKPVQRRIVYAMSELGLNASAKFKKSARTVGDVLGKYHPHGDSACYEAMVLMAQPFSYRYPLVDGQGNWGAPDDPKSFAAMRYTESRLSKYSELLLSELGQGTADWVPNFDGTLQEPKMLPARLPNILLNGTTGIAVGMATDIPPHNLREVAQAAIALIDQPKTTLDQLLDIVQGPDYPTEAEIITSRAEIRKIYENGRGSVRMRAVWKKEDGAVVISALPHQVSGARVLEQIAAQMRNKKLPMVDDLRDESDHENPTRLVIVPRSNRVDMDQVMNHLFATTDLEKSYRINLNMIGLDGRPAVKNLLEILSEWLVFRRDTVRRRLNYRLEKVLKRLHILEGLLVAFLNIDEVIEIIRNEDEPKPALMSRFGLTETQAEAILELKLRHLAKLEEMKIRGEQSELEKERDQLQGILASERKMNNLLKKELQADAQAYGDDRRSPLQEREEAKAMSEHDMLPSEPVTIVLSQMGWVRSAKGHDIDAPGLNYKAGDSFKAAVKGKSNQPVVFVDSTGRSYAIDPITLPSARGQGEPLTGKLTLPPGATVDHMLMESDDQKLLMASDAGYGFVCTFNDLVARNRAGKALITLPENAHVMPPVVIEDASDMLLAITQAGRMLMFPVSDLPQLSKGKGNKIINIPSAEAARGEDGLAQLYVLPPQSTLTIHVGKRKIKLRPEELQKVTGERGRRGTLMRGLQRIDRVEIDSPRRASSGDSEE
Regarding B1, the binding result is listed as “no binding”.

For the origin of these results see publication doi:10.1101/2021.03.03.433707.
